Some of the results follow.
Legend:
Experiment in all cases: glycan array binding signal (z-score within array); higher = stronger binding
Conditions in all cases: glycan notation: IUPAC condensed, linker removed
[1] = target: Gal(b1-4)GlcNAc(b1-2)[Gal(b1-4)GlcNAc(b1-6)]Man(a1-6)[GlcNAc(b1-4)][Gal(b1-4)GlcNAc(b1-2)Man(a1-3)]Man(b1-4)GlcNAc(b1-4)GlcNAc
Outline: (§1)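 Glycan array data were curated from 3228 arrays in the Consortium for Functional Glycomics database and kept only where the protein sequence was available. Glycan names were converted to IUPAC-condensed notation, and columns mapping to the same glycan were averaged. The binding signal is a within-array Z-score, averaged across arrays of the same protein sequence at different concentrations or buffers and across linkers. Negative Z-scores can be read as non-binding.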

[2] = target: Gal(b1-4)GlcNAc(b1-2)[Gal(b1-4)GlcNAc(b1-6)]Man(a1-6)[GlcNAc(b1-4)][Gal(b1-4)GlcNAc(b1-2)[Gal(b1-4)GlcNAc(b1-4)]Man(a1-3)]Man(b1-4)GlcNAc(b1-4)[Fuc(a1-6)]GlcNAc
Outline: as §1

[3] = target: Gal(b1-4)GlcNAc(b1-3)Gal(b1-3)GalNAc
Outline: as §1

[4] = target: Gal(b1-4)GlcNAc(b1-3)Gal(b1-3)GlcNAc
Outline: as §1

[5] = target: Gal(b1-4)GlcNAc(b1-3)Gal(b1-4)Glc
Outline: as §1

[6] = target: Gal(b1-4)GlcNAc(b1-3)Gal(b1-4)GlcNAc
Outline: as §1

[7] = target: Gal(b1-4)GlcNAc(b1-3)Gal(b1-4)GlcNAc(b1-2)Man(a1-3)[Gal(b1-4)GlcNAc(b1-3)Gal(b1-4)GlcNAc(b1-2)Man(a1-6)]Man(b1-4)GlcNAc(b1-4)GlcNAc
Outline: as §1

[8] = target: Gal(b1-4)GlcNAc(b1-3)Gal(b1-4)GlcNAc(b1-2)Man(a1-3)[Gal(b1-4)GlcNAc(b1-3)Gal(b1-4)GlcNAc(b1-2)Man(a1-6)]Man(b1-4)GlcNAc(b1-4)[Fuc(a1-6)]GlcNAc
Outline: as §1

[9] = target: Gal(b1-4)GlcNAc(b1-3)Gal(b1-4)GlcNAc(b1-2)[Gal(b1-4)GlcNAc(b1-3)Gal(b1-4)GlcNAc(b1-6)]Man(a1-6)[Gal(b1-4)GlcNAc(b1-3)Gal(b1-4)GlcNAc(b1-2)Man(a1-3)]Man(b1-4)GlcNAc(b1-4)GlcNAc
Outline: as §1

[10] = target: Gal(b1-4)GlcNAc(b1-3)Gal(b1-4)GlcNAc(b1-2)[Gal(b1-4)GlcNAc(b1-3)Gal(b1-4)GlcNAc(b1-6)]Man(a1-6)[Gal(b1-4)GlcNAc(b1-3)Gal(b1-4)GlcNAc(b1-2)Man(a1-3)]Man(b1-4)GlcNAc(b1-4)[Fuc(a1-6)]GlcNAc
Outline: as §1

[11] = target: Gal(b1-4)GlcNAc(b1-3)Gal(b1-4)GlcNAc(b1-3)Gal(b1-4)GlcNAc
Outline: as §1

[12] = target: Gal(b1-4)GlcNAc(b1-3)Gal(b1-4)GlcNAc(b1-3)Gal(b1-4)GlcNAc(b1-2)Man(a1-3)[Gal(b1-4)GlcNAc(b1-3)Gal(b1-4)GlcNAc(b1-3)Gal(b1-4)GlcNAc(b1-2)Man(a1-6)]Man(b1-4)GlcNAc(b1-4)GlcNAc
Outline: as §1

[13] = target: Gal(b1-4)GlcNAc(b1-3)Gal(b1-4)GlcNAc(b1-3)Gal(b1-4)GlcNAc(b1-2)Man(a1-3)[Gal(b1-4)GlcNAc(b1-3)Gal(b1-4)GlcNAc(b1-3)Gal(b1-4)GlcNAc(b1-2)Man(a1-6)]Man(b1-4)GlcNAc(b1-4)[Fuc(a1-6)]GlcNAc
Outline: as §1

[14] = target: Gal(b1-4)GlcNAc(b1-3)Gal(b1-4)GlcNAc(b1-3)Gal(b1-4)GlcNAc(b1-2)[Gal(b1-4)GlcNAc(b1-3)Gal(b1-4)GlcNAc(b1-3)Gal(b1-4)GlcNAc(b1-6)]Man(a1-6)[Gal(b1-4)GlcNAc(b1-3)Gal(b1-4)GlcNAc(b1-3)Gal(b1-4)GlcNAc(b1-2)Man(a1-3)]Man(b1-4)GlcNAc(b1-4)[Fuc(a1-6)]GlcNAc
Outline: as §1

[15] = target: Gal(b1-4)GlcNAc(b1-3)Gal(b1-4)GlcNAc(b1-3)Gal(b1-4)GlcNAc(b1-3)Gal(b1-4)GlcNAc(b1-2)Man(a1-3)[Gal(b1-4)GlcNAc(b1-3)Gal(b1-4)GlcNAc(b1-3)Gal(b1-4)GlcNAc(b1-3)Gal(b1-4)GlcNAc(b1-2)Man(a1-6)]Man(b1-4)GlcNAc(b1-4)GlcNAc
Outline: as §1

[16] = target: Gal(b1-4)GlcNAc(b1-3)Gal(b1-4)GlcNAc(b1-3)Gal(b1-4)GlcNAc(b1-3)Gal(b1-4)GlcNAc(b1-2)Man(a1-3)[Gal(b1-4)GlcNAc(b1-3)Gal(b1-4)GlcNAc(b1-3)Gal(b1-4)GlcNAc(b1-3)Gal(b1-4)GlcNAc(b1-2)Man(a1-6)]Man(b1-4)GlcNAc(b1-4)[Fuc(a1-6)]GlcNAc
Outline: as §1

[17] = target: Gal(b1-4)GlcNAc(b1-3)Gal(b1-4)GlcNAc(b1-3)Gal(b1-4)GlcNAc(b1-3)Gal(b1-4)GlcNAc(b1-2)[Gal(b1-4)GlcNAc(b1-3)Gal(b1-4)GlcNAc(b1-3)Gal(b1-4)GlcNAc(b1-3)Gal(b1-4)GlcNAc(b1-6)]Man(a1-6)[Gal(b1-4)GlcNAc(b1-3)Gal(b1-4)GlcNAc(b1-3)Gal(b1-4)GlcNAc(b1-3)Gal(b1-4)GlcNAc(b1-2)Man(a1-3)]Man(b1-4)GlcNAc(b1-4)[Fuc(a1-6)]GlcNAc
Outline: as §1

[18] = target: Gal(b1-4)GlcNAc(b1-3)Gal(b1-4)GlcNAc(b1-3)Gal(b1-4)GlcNAc(b1-3)Gal(b1-4)GlcNAc(b1-3)Gal(b1-4)GlcNAc(b1-2)Man(a1-3)[Gal(b1-4)GlcNAc(b1-3)Gal(b1-4)GlcNAc(b1-3)Gal(b1-4)GlcNAc(b1-3)Gal(b1-4)GlcNAc(b1-3)Gal(b1-4)GlcNAc(b1-2)Man(a1-6)]Man(b1-4)GlcNAc(b1-4)GlcNAc
Outline: as §1

[19] = target: Gal(b1-4)GlcNAc(b1-3)Gal(b1-4)GlcNAc(b1-3)Gal(b1-4)GlcNAc(b1-3)Gal(b1-4)GlcNAc(b1-3)Gal(b1-4)GlcNAc(b1-2)Man(a1-3)[Gal(b1-4)GlcNAc(b1-3)Gal(b1-4)GlcNAc(b1-3)Gal(b1-4)GlcNAc(b1-3)Gal(b1-4)GlcNAc(b1-3)Gal(b1-4)GlcNAc(b1-2)Man(a1-6)]Man(b1-4)GlcNAc(b1-4)[Fuc(a1-6)]GlcNAc
Outline: as §1

[20] = target: Gal(b1-4)GlcNAc(b1-3)Gal(b1-4)GlcNAc(b1-3)Gal(b1-4)GlcNAc(b1-3)Gal(b1-4)GlcNAc(b1-3)Gal(b1-4)GlcNAc(b1-2)[Gal(b1-4)GlcNAc(b1-3)Gal(b1-4)GlcNAc(b1-3)Gal(b1-4)GlcNAc(b1-3)Gal(b1-4)GlcNAc(b1-3)Gal(b1-4)GlcNAc(b1-6)]Man(a1-6)[Gal(b1-4)GlcNAc(b1-3)Gal(b1-4)GlcNAc(b1-3)Gal(b1-4)GlcNAc(b1-3)Gal(b1-4)GlcNAc(b1-3)Gal(b1-4)GlcNAc(b1-2)Man(a1-3)]Man(b1-4)GlcNAc(b1-4)[Fuc(a1-6)]GlcNAc
Outline: as §1

[21] = target: Gal(b1-4)GlcNAc(b1-3)Gal(b1-4)GlcNAc(b1-3)Gal(b1-4)GlcNAc(b1-3)Gal(b1-4)GlcNAc(b1-3)Gal(b1-4)GlcNAc(b1-3)Gal(b1-4)GlcNAc(b1-2)Man(a1-3)[Gal(b1-4)GlcNAc(b1-3)Gal(b1-4)GlcNAc(b1-3)Gal(b1-4)GlcNAc(b1-3)Gal(b1-4)GlcNAc(b1-3)Gal(b1-4)GlcNAc(b1-3)Gal(b1-4)GlcNAc(b1-2)Man(a1-6)]Man(b1-4)GlcNAc(b1-4)GlcNAc
Outline: as §1

[22] = target: Gal(b1-4)GlcNAc(b1-3)Gal(b1-4)GlcNAc(b1-3)GalNAc
Outline: as §1

[23] = target: Gal(b1-4)GlcNAc(b1-3)Gal(b1-4)GlcNAc(b1-3)[Gal(b1-4)GlcNAc(b1-3)Gal(b1-4)GlcNAc(b1-6)]GalNAc
Outline: as §1

[24] = target: Gal(b1-4)GlcNAc(b1-3)Gal(b1-4)GlcNAc(b1-6)[Gal(b1-3)]GalNAc
Outline: as §1

[25] = target: Gal(b1-4)GlcNAc(b1-3)Gal(b1-4)[Fuc(a1-3)]GlcNAc(b1-3)Gal(b1-4)[Fuc(a1-3)]GlcNAc
Outline: as §1

[26] = target: Gal(b1-4)GlcNAc(b1-3)GalNAc
Outline: as §1

[27] = target: Gal(b1-4)GlcNAc(b1-3)[Fuc(a1-3)GlcNAc(b1-6)]Gal(b1-4)Glc
Outline: as §1

[28] = target: Gal(b1-4)GlcNAc(b1-3)[Gal(b1-4)GlcNAc(b1-6)]Gal(b1-4)GlcNAc
Outline: as §1

[29] = target: Gal(b1-4)GlcNAc(b1-3)[GlcNAc(b1-6)]Gal(b1-4)GlcNAc
Outline: as §1

[30] = target: Gal(b1-4)GlcNAc(b1-6)Gal(b1-4)GlcNAc
Outline: as §1

[31] = target: Gal(b1-4)GlcNAc(b1-6)GalNAc
Outline: as §1

[32] = target: Gal(b1-4)GlcNAc(b1-6)[Gal(b1-3)]GalNAc
Outline: as §1

[33] = target: Gal(b1-4)GlcNAc(b1-6)[Gal(b1-4)GlcNAc(b1-3)]GalNAc
Outline: as §1

[34] = target: Gal(b1-4)GlcNAc6P
Outline: as §1

[35] = target: Gal(b1-6)Gal
Outline: as §1

[36] = target: Gal3S(b1-3)GalNAc
Outline: as §1

[37] = target: Gal3S(b1-3)GlcNAc
Outline: as §1

[38] = target: Gal3S(b1-3)[Fuc(a1-4)]GlcNAc
Outline: as §1

B1: Sp8391B-bot-388-20-388 (Bacteroides ovatus) (protein)
chain: GCQNNDENEQHYDNKLFISASNFTKEILFKAGDTNVETGLSVAIAKPEEHDIKVTMSPAPELLSTYKLAYYDETAVLLSEEHYSMPETSTTIKSGSIVSPELPIEFINTGELDIKTTYVLPVTIKSVEGIGVLQSAKTYYYVFRGASLINVVCNISRNRAYPDFKNDSKFNNLTENTMEILFKANSFPNTLNTLMGIESNYLLRIGDATIPNNQLQVATSVNNCTSADLQLESGKWYHVAVAFNKGNVKVYINGVEKLSGSTGKSSVSLGAKHTNEEDGSRCFWVGYSYKDDRYFDGVVSEVRIWNRALTAEEIQATNHFYTIEPESEGLIAYWKFDEGSGTVAKDYSVSGYDLTIEKEPKWESVSLPQ
glycan array binding signal (z-score) [1]: -0.41
glycan array binding signal (z-score) [2]: -0.323
glycan array binding signal (z-score) [3]: -0.068
glycan array binding signal (z-score) [4]: -0.556
glycan array binding signal (z-score) [5]: -0.506
glycan array binding signal (z-score) [6]: -0.406
glycan array binding signal (z-score) [7]: 1.45
glycan array binding signal (z-score) [8]: 0.652
glycan array binding signal (z-score) [9]: -0.936
glycan array binding signal (z-score) [10]: 0.479
glycan array binding signal (z-score) [11]: -0.686
glycan array binding signal (z-score) [12]: 2.45
glycan array binding signal (z-score) [13]: -0.039
glycan array binding signal (z-score) [14]: 0.655
glycan array binding signal (z-score) [15]: 2.49
glycan array binding signal (z-score) [16]: 0.085
glycan array binding signal (z-score) [17]: -0.629
glycan array binding signal (z-score) [18]: 0.85
glycan array binding signal (z-score) [19]: 0.281
glycan array binding signal (z-score) [20]: -0.112
glycan array binding signal (z-score) [21]: 1.31
glycan array binding signal (z-score) [22]: -0.212
glycan array binding signal (z-score) [23]: -0.269
glycan array binding signal (z-score) [24]: 0.674
glycan array binding signal (z-score) [25]: -0.284
glycan array binding signal (z-score) [26]: -0.431
glycan array binding signal (z-score) [27]: 0.415
glycan array binding signal (z-score) [28]: 0.572
glycan array binding signal (z-score) [29]: 0.193
glycan array binding signal (z-score) [30]: 0.486
glycan array binding signal (z-score) [31]: 0.056
glycan array binding signal (z-score) [32]: -0.289
glycan array binding signal (z-score) [33]: -0.718
glycan array binding signal (z-score) [34]: 0.015
glycan array binding signal (z-score) [35]: 0.122
glycan array binding signal (z-score) [36]: -0.809
glycan array binding signal (z-score) [37]: -0.053
glycan array binding signal (z-score) [38]: -0.484
